Test results as given in paper PMC7058620.
These are yes or no findings as the source states them, for the method shown. Binding seen in cells or lysates may run through a third protein. Some binding calls cover weakened binding; strength is not graded here.

Amino acid sequences for entries named in this document (tags omitted). Residues count along the entry.
UniProt O14786, residues 22-923: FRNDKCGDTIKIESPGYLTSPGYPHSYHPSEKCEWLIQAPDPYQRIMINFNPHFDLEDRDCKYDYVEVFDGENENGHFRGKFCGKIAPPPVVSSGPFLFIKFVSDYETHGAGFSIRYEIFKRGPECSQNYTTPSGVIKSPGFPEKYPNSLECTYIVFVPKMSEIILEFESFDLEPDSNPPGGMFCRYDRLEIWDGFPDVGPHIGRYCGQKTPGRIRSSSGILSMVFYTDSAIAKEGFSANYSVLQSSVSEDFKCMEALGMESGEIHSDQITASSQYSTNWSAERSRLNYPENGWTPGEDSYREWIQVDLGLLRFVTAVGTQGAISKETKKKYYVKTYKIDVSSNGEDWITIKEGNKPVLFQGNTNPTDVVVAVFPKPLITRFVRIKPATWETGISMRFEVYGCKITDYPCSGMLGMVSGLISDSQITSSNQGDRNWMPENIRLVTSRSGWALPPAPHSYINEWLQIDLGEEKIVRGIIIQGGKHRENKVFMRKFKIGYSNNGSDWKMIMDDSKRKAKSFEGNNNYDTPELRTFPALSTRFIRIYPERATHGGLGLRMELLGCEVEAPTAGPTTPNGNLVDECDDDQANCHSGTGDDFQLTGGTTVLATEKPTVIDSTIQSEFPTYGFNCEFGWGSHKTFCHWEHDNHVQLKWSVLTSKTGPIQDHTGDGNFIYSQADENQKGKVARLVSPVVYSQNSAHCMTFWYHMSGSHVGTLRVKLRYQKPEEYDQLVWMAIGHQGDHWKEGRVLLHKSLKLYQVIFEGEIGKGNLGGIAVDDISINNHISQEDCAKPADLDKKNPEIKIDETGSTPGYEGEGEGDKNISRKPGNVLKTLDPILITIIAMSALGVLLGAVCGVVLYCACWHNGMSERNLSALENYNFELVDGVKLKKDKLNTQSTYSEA
UniProt P60953: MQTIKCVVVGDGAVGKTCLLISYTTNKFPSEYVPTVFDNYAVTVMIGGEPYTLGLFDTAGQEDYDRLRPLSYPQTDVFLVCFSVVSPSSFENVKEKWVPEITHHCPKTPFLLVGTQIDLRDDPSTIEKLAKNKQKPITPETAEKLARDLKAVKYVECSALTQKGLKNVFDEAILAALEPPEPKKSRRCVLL

Target: neuropilin-1 (NRP1) (human (endogenous in SW480/LS174T)) (UniProt O14786)
Test: co-IP; CRC cells with (+) or without (-) VEGF (50 ng/mL) treatment; which of the two was precipitated is not told

binding: binds
Substance: Cdc42 (cell division cycle 42) (from UniProt P60953 1-191)
